Data reported in patent US20190144517A1 (SHANGHAI JW INFLINHIX, published 2019).
Results are given in words; binding and its absence hold for the method and conditions named. Some entries that bind do so weakly or less than the wild type.

Key:
[1] = molecular target: Tumor necrosis factor alpha (TNF) (human) (UniProt P01375); assay: ELISA, TNF coated, screen of 33 mAbs
[2] = molecular target: Tumor necrosis factor alpha (TNF) (human) (UniProt P01375); assay: confocal immunofluorescence on L929 cells
[3] = molecular target: monoclonal antibody 244-12; assay: ELISA, plate coated with 2 µg/ml of P11-17, anti-mouse IgG-HRP
[4] = molecular target: monoclonal antibody 244-12; assay: summary table, column 'binding to cell necrosis-promoting antibodies'
[5] = molecular target: monoclonal antibody 244-12; assay: ELISA, plate coated with 2 µg/ml of P11-17
[6] = molecular target: monoclonal antibody 244-12; assay: competition ELISA on coated TNF
[7] = molecular target: monoclonal antibody 244-12; assay: competition ELISA: TNF coated, peptide added, then 244-12

| Binder | binding [3] | binding [5] | binding [6] | binding [7] | binding [1] | binding [2] | binding [4] |
| --- | --- | --- | --- | --- | --- | --- | --- |
| monoclonal antibody 244-12 (antibody, mouse IgG2b, kappa, V domains shown, It was detected with an anti-mouse IgG secondary antibody) VH: QIQLVQSGPELKKPGETVKISCKASGYTFTNYGMNWVKQAPGKGLKWMGWINTYTGEPTYADDFKGRFAFSLETSANTAYLQINNLRNEGMATYFCARHYRYAWFPYWGQGTLVTVSA VL: DIQMTQSPASLSASVGETVTITCRASGNIHIYLAWYQQKQGKSPQLLVYNAKTLADGVPSRFSGSGSGTQYSLKINSLQPEDFGSYYCQHFWSIPWTFGGGTKLEIKR | – | – | – | – | binds | binds | – |
| polypeptide P11-17 (peptide) QLQWLNRRANALLANGVELRDNQLVVPSEGLYLIYSQVLFKGQGCPSTHVLLTHTISRIAVSYQTKVNLLSAIKSPCQRE | binds | binds | – | – | – | – | binds |
| DNQLVVPSEG [polypeptide P13-1] | – | – | binds | binds | – | – | binds |
| P11-17 (mutant, SY mutation) (peptide) QLQWLNRRANALLANGVELRDNQLVVPSEGLYLIYSQVLFKGQGCPSTHVLLTHTISRIAVFHQTKVNLLSAIKSPCQRE | – | – | – | – | – | – | binds |

Further lines, with some results ahead:

| binding [3] | binding [5] | binding [6] | binding [7] | Binder | binding [1] | binding [2] | binding [4] |
| --- | --- | --- | --- | --- | --- | --- | --- |
| – | – | binds | binds | RDNQLVVPSE [polypeptide P12-10] | – | – | binds |
| – | – | binds | binds | NQLVVPSEGL [polypeptide P13-2] | – | – | binds |
| – | – | binds | binds | QLVVPSEGLY [polypeptide P13-3] | – | – | binds |
